No constants are given. Whether binding was seen depends on the method and setting. Some results given as binding are weak or reduced against the parent protein; the word gives no strength.
molecular target: hMFI2 Tf-like Domain 2 (TLD2), amino acids 366-709, displayed on yeast (human) (UniProt P08582); test: flow cytometry on yeast displaying hMFI2 domains

Amino acid sequences for entries named in this document (tags omitted). A change or cut given only in a name is not applied to a line headed by its entry.
UniProt P08582: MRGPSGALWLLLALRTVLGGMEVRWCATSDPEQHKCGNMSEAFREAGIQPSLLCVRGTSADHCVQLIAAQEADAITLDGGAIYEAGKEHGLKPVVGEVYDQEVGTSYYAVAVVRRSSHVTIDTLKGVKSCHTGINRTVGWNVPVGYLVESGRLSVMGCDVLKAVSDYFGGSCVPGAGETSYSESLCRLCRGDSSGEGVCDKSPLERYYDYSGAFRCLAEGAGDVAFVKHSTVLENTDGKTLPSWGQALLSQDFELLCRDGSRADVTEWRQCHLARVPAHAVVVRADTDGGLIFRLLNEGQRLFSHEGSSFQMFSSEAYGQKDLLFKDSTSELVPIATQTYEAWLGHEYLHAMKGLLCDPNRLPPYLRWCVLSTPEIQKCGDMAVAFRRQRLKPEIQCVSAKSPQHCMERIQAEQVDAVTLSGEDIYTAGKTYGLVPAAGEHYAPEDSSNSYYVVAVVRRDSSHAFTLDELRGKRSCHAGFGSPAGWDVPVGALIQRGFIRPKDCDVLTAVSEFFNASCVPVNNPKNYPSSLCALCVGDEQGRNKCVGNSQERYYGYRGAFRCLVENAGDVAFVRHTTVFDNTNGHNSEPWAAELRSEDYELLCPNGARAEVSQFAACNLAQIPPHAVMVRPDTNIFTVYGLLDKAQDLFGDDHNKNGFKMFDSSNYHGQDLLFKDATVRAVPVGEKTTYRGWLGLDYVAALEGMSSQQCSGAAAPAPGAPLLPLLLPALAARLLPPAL

| Binder | binding |
| --- | --- |
| SC57.29 (antibody, V domains shown) VH: QVQLQQSGAELMKPGASVKISCKATGYTFSNYRIEWIKQRPGHGLEWIGEILPRGGNTNYNEKFKGKATFTADTSSNTAYMQLTSLTSEDSAVYYCARDDGYYGRFAYWGQGTLVTVSA VL: DIQMTQTTSSLSASLGDRVTISCRASQDISNYLNWYQQKPDGTVKLLIFYTSRLHSGVPSRFSGSGSGTDYSLTISNLEQEDFATYFCQQGNTLPPTFGGGTKLEIK | binds |
| SC57.30 (antibody, V domains shown) VH: QVQLQQSGAELMKPGASVKISCKATGYTFSNYRIEWIKQRPGHGLEWIGEILPRGGNTNYNEKFKGKATFTADTSSNTAYMQLTSLTSEDSAVYYCARDDGYYGRFAYWGQGTLVTVSA VL: DIQMTQTTSSLSASLGDRVTISCRASQDISNYLNWYQQKPDGTVKLLIFYTSRLHSGVPSRFSGSGSGTDYSLTISNLEQEDFATYFCQQGNTLPPTFGGGTKLEIK | binds |
| SC57.47 (antibody, V domains shown) VH: QVQLQQSGAELMKPGASVKISCKATGYTFSNYRIEWIKQRPGHGLEWIGEILPRGGNTNYNEKFKGKATFTADTSSNTAYMQLTSLTSEDSAVYYCARDDGYYGRFAYWGQGTLVTVSA VL: DIQMTQTTSSLSASLGDRVTISCRASQDISNYLNWYQQKPDGTVKLLIFYTSRLHSGVPSRFSGSGSGTDYSLTISNLEQEDFATYFCQQGNTLPPTFGGGTKLEIK | binds |
| SC57.40 (antibody, V domains shown) VH: QVQLQQSGAELMKPGASVKISCKATGYTFSNYRIEWIKQRPGHGLEWIGEILPRGGNTNYNEKFKGKATFTADTSSNTAYMQLTSLTSEDSAVYYCARDDGYYGRFAYWGQGTLVTVSA VL: DIQMTQTTSSLSASLGDRVTISCRASQDISNYLNWYQQKPDGTVKLLIFYTSRLHSGVPSRFSGSGSGTDYSLTISNLEQEDFATYFCQQGNTLPPTFGGGTKLEIK | binds |
| SC57.51 (antibody, V domains shown) VH: QVQLQQSGAELMKPGASVKISCKATGYTFSNYRIEWIKQRPGHGLEWIGEILPRGGNTNYNEKFKGKATFTADTSSNTAYMQLTSLTSEDSAVYYCARDDGYYGRFAYWGQGTLVTVSA VL: DIQMTQTTSSLSASLGDRVTISCRASQDISNYLNWYQQKPDGTVKLLIFYTSRLHSGVPSRFSGSGSGTDYSLTISNLEQEDFATYFCQQGNTLPPTFGGGTKLEIK | binds |
| SC57.56 (antibody, V domains shown) VH: QVQLQQSGAELMKPGASVKISCKATGYTFSNYRIEWMKQRPGHGLEWIGEILPRTGNTNYNENFKGKATFTADTSSNTAYIQLSSLTSEDSAVYYCARDDGYYGRFAYWGQGTLVTVSA VL: DIQMTQTTSSLSASLGDRVTISCRASQDISSYLNWYQQKPDGTVKLLIYYTSRLHSGVPSRFSGSGSGTDYSLTINNLEQEDIATYFCQQGNTLPPTFGGGTKLEIK | binds |
| SC57.35 (antibody, V domains shown) VH: QVQLQQSGAELMKPGASVKISCKATGYTFSNYRIEWIKQRPGHGLEWIGEILPRGGNTNYNEKFKGKATFTADTSSNTAYMQLTSLTSEDSAVYYCARDDGYYGRFAYWGQGTLVTVSA VL: DIQMTQTTSSLSASLGDRVTISCRASQDISNYLNWYQQKPDGTVKLLIFYTSRLHSGVPSRFSGSGSGTDYSLTISNLEQEDFATYFCQQGNTLPPTFGGGTKLEIK | binds |
| SC57.54 (antibody, V domains shown) VH: QVQLQQSGAELMKPGASVKISCKATGYTFSNYRIEWIKQRPGHGLEWIGEILPRGGNTNYNEKFKGKATFTADTSSNTAYMQLTSLTSEDSAVYYCARDDGYYGRFAYWGQGTLVTVSA VL: DIQMTQTTSSLSASLGDRVTISCRASQDISNYLNWYQQKPDGTVKLLIFYTSRLHSGVPSRFSGSGSGTDYSLTISNLEQEDFATYFCQQGNTLPPTFGGGTKLEIK | binds |
| SC57.46 (antibody, V domains shown) VH: QVQLKESGPGLVAPSQSLSITCTVSGFSLTSYGVHWVRQPPGKGLEWLGIIWAGGTTNYNSALMSRLSIRKDNSKSQVFLKMNSLQTDDTAMYYCARDRGYDGYFDYAVDYWGQGTSVTVSS VL: DIQMTQSPPSLSASVGETVTITCRTSENIYSYLTWYQQKQGKSPQLLVYNAKTLAEGVPSRFSGSGSGTQFSLKINSLQPEDFGSYYCQHHYGTPLTFGAGTKLELK | binds |

Continued, values first:

| binding | Binder |
| --- | --- |
| binds | SC57.53 (antibody, V domains shown) VH: QVHLKESGPGLVAPSQSLSITCTVSGFSLTTYGVHWVRQPPGKGLEWLGVIWAGGSTKYNSAFMSRLSISKDNSKTQVLLKMNSLQTDDTAMYYCARVASHGSSSWFAYWGQGTLVTVSA VL: DIVLTQSPATLSVTPGDSVSLSCRASQSVGNSLHWYQQKSHESPRLLIKYASQSISGIPSRFSGSGSGTDFTLSINSVETEDFGMYFCQQSDSWPLTFGTGTKLELK |
| binds | SC57.57 (antibody, V domains shown) VH: QVHLKESGPGLVAPSQSLSITCTVSGFSLTTYGVHWVRQPPGKGLEWLGVIWAGGSTKYNSAFMSRLSISKDNSKTQVLLKMNSLQTDDTAMYYCARVASHGSSSWFAYWGQGTLVTVSA VL: DIVLTQSPATLSVTPGDSVSLSCRASQSVGNSLHWYQQKSHESPRLLIKYASQSISGIPSRFSGSGSGTDFTLSINSVETEDFGMYFCQQSDSWPLTFGTGTKLELK |
| binds | SC57.6 (antibody, V domains shown) VH: GVQVVESGGGVVQPGGSLKLSCAASGFTFSSYAMSWVRQTPEKRLEWVAYLSRGGGSTYYLDTVKGRFTISRDNAKNTLYLQMNSLKSEDTAMYYCARLDGYNWYFDVWGAGTPVTVSS VL: DIVMSQSPSSLAVSAGEKVTMSCKSSQSLLHSRIRKNYLAWYQQKPGQSPKLLIYWASTRESGVPDRFTGSGSGTDFTLTISSVQAEDLAVYYCKQSYNLFTFGGGTKLEIK |
| binds | SC57.41 (antibody, V domains shown) VH: QVQLQQSGAELMKPGASVKISCKATGYTFSNYRIEWMKQRPGHGLEWIGEILPRTGNTNYNENFKGKATFTADTSSNTAYIQLSSLTSEDSAVYYCARDDGYYGRFAYWGQGTLVTVSA VL: DIQMTQTTSSLSASLGDRVTISCRASQDISSYLNWYQQKPDGTVKLLIYYTSRLHSGVPSRFSGSGSGTDYSLTINNLEQEDIATYFCQQGNTLPPTFGGGTKLEIK |
| binds | SC57.38 (antibody, V domains shown) VH: QVQLQQSGAELMKPGASVKISCKATGYTFSNYRIEWIKQRPGHGLEWIGEILPRGGNTNYNEKFKGKATFTADTSSNTAYMQLTSLTSEDSAVYYCARDDGYYGRFAYWGQGTLVTVSA VL: DIQMTQTTSSLSASLGDRVTISCRASQDISNYLNWYQQKPDGTVKLLIFYTSRLHSGVPSRFSGSGSGTDYSLTISNLEQEDFATYFCQQGNTLPPTFGGGTKLEIK |
| binds | SC57.45 (antibody, V domains shown) VH: QVQLQQSGAELMKPGASVKISCKATGYTFSNYRIEWIKQRPGHGLEWIGEILPRGGNTNYNEKFKGKATFTADTSSNTAYMQLTSLTSEDSAVYYCARDDGYYGRFAYWGQGTLVTVSA VL: DIQMTQTTSSLSASLGDRVTISCRASQDISNYLNWYQQKPDGTVKLLIFYTSRLHSGVPSRFSGSGSGTDYSLTISNLEQEDFATYFCQQGNTLPPTFGGGTKLEIK |
